PubChem BioAssay AID588497 (NMMLSC, 2011)
In all, about 360,000 compounds went through this assay and about 780 (0.22%) were called active. Inconclusive results, whose numbers are uncertain, are shown with a selection of clear calls. Rule as the data show it: active = inhibition above about 35% (passing the limit was not always enough); inconclusive = no clear call, values can overlap the other calls.

The molecules below were run on Botulinum neurotoxin type F light chain protease (Clostridium botulinum) (assay: BoNT/F light chain protease inhibitors, primary screen, biochemical, flow cytometry, MLPCN library (AID 588497; also: plate controls were buffer without enzyme for full effect and enzyme alone for no effect)). Settings: Multiplex microsphere protease cleavage assay, at 10 µM, active compounds read high.

| Structure (SMILES) | inhibition |
| --- | --- |
| CCOC(=O)C1CCN(C(=O)Cn2nc(CC)n3cccc3c2=O)CC1 | inactive: 6.8% |
| Nn1c(C2COc3ccccc3O2)n[nH]c1=S (stereo unspecified) | inactive: -5.7% |
| COc1cccc(NC(=O)Cn2cc(C=O)c3ccccc32)c1 | inconclusive: 22% |
| COc1ccc(N(CC(=O)Nc2ccc(F)c(F)c2)S(=O)(=O)c2c(C)[nH]c(=O)[nH]c2=O)cc1 | inconclusive: 1.9% |
| CCC(C)(C)n1nnnc1C(C(C)C)N(Cc1cccnc1)Cc1ccco1 (stereo unspecified) | inactive: -0.1% |
| CCOC(=O)c1ccccc1NC(=O)COC(=O)c1ccccc1C(=O)N(C)c1ccccc1 | inconclusive: 1.5% |
| CCOC(=O)C1(C(F)(F)F)N=C(c2ccccc2F)OC(N(C)C)=N1 (stereo unspecified) | inconclusive: 2.3% |
| Cc1cc2cc(CNC(=O)Cc3ccc([N+](=O)[O-])cc3)ccc2[nH]1 | inactive: -31.3% |
| COC(C[C@H]1O[C@@H]1[C@H](O)COCc1ccccc1)OC | inactive: -3.8% |
| COc1ccc(S(=O)(=O)NCc2cccnc2)cc1Br | inconclusive: 1.9% |
| CCOC(=O)CSc1nnc(CNC(=O)c2ccc(OC)cc2OC)n1-c1ccc(OC)cc1 | inactive: -0.1% |
| Clc1ccc(OCc2nn3c(-c4ccco4)nnc3s2)c(Cl)c1 | inactive: 12.4% |
| O=C(CSc1nnnn1-c1cccc2ccccc12)Nc1ccc(C(=O)O)cc1 | inconclusive: -18.8% |
| Cc1cc(C)c(S(=O)(=O)Nc2cccnc2)c(C)c1 | inactive: 1.9% |
| COc1ccc(C2OC(=O)C(C)(C)C(=O)C2(C)C)cc1OC (stereo unspecified) | inconclusive: 20.4% |
| COc1ccc2oc(=N)c(C(=O)Nc3ccc(F)cc3)cc2c1 | inconclusive: -24.2% |
| CCOP(=O)(Cc1ccc(C(C)(C)CC(C)=O)o1)OCC | inconclusive: -125% |
| Cc1cc(OC(C)C(=O)NCC2CCC(C(=O)O)CC2)c2c(C)c(Cc3ccccc3)c(=O)oc2c1 (stereo unspecified) | inactive: -4.8% |
| Cn1c(=O)c2c(ncn2CC(=O)N2CCN(c3ccc(F)cc3)CC2)n(C)c1=O | inconclusive: -6.9% |

Some values from the entries so far:
Entry for COc1ccc2oc(=N)c(C(=O)Nc3ccc(F)cc3)cc2c1 under inhibition: inconclusive: -24.2%
Entry for CCOC(=O)C1CCN(C(=O)Cn2nc(CC)n3cccc3c2=O)CC1 under inhibition: inactive: 6.8%
Entry for CCC(C)(C)n1nnnc1C(C(C)C)N(Cc1cccnc1)Cc1ccco1 (stereo unspecified) under inhibition: inactive: -0.1%
Entry for O=C(CSc1nnnn1-c1cccc2ccccc12)Nc1ccc(C(=O)O)cc1 under inhibition: inconclusive: -18.8%
Entry for COc1ccc(S(=O)(=O)NCc2cccnc2)cc1Br under inhibition: inconclusive: 1.9%

Following part

| Structure (SMILES) | inhibition |
| --- | --- |
| COc1ccccc1C(C)NS(=O)(=O)c1ccc(Cl)nc1 (stereo unspecified) | inconclusive: -9.7% |
| COc1ccc(Oc2cccc(Cl)c2CNC(=O)CCC(=O)O)cc1 | inconclusive: -23.5% |
| O=C(CSc1nnc(COc2ccc(Cl)cc2)o1)Nc1ccc(N2CCOCC2)cc1 | inconclusive: 3.4% |
| COc1ccc(C(CNC(=O)c2cccc(S(=O)(=O)NCc3ccccc3)c2)N2CCOCC2)cc1 (stereo unspecified) | inconclusive: -3.7% |
| O=C(COc1ccc(F)cc1)NCC1CCCO1 (stereo unspecified) | inactive: -4.4% |
| CCC(C)(C(=O)NC1CCCC1)N(C(=O)CNC(C)=O)c1ccccc1 (stereo unspecified) | inconclusive: 28.5% |
| COc1cc(OC)c(/C=N/N2CCN(c3ccccc3OC)CC2)c(OC)c1 | inactive: -4.4% |
| CN1C(=O)[C@H]2[C@@H](/C=C/c3ccccc3)N3C(=O)CN(Cc4ccc(-c5ccccc5)cc4)C(=O)[C@@]3(Cc3ccccc3)[C@H]2C1=O | inactive: -2.1% |
| CC12CN(C(=O)c3cccc([N+](=O)[O-])c3)C3(C#N)CC1CCC23C (stereo unspecified) | inconclusive: -3.1% |
| FC(F)(F)c1cc(-c2ccco2)nc(N2CCOCC2)n1 | inconclusive: -2.7% |
| Cc1ccc(C2=CC(=O)C[C@H](c3ccc(F)cc3)C2)cc1 | inactive: -3.9% |
| O=C(NNc1ccc(-c2csnn2)cc1)c1ccccc1C(F)(F)F | inconclusive: -13.2% |
| Cc1cc(Nc2ccccc2Cl)nc(-c2ccccc2O)n1 | active: 35.9% |
| O=C(O)c1ccc(OCC2CCCO2)cc1 (stereo unspecified) | inconclusive: -47.5% |
| CCc1nnc2sc(-c3ccc(NC(=O)c4ccco4)cc3)nn12 | inactive: -3.2% |
| Fc1ccc(C2N3CCCN23)cc1 (stereo unspecified) | inconclusive: -29.6% |
| Cc1ccc(-n2c(-c3ccco3)nc3nc4ccccc4nc32)cc1F | inconclusive: 30.4% |
| O=C1CSC(c2cccnc2)N1Cc1ccc(Cl)c(Cl)c1 (stereo unspecified) | inconclusive: -7.1% |
| COC(=O)Cc1ccc(NC(C)=O)cc1 | inactive: -2.9% |

| Structure (SMILES) | inhibition |
| --- | --- |
| Cc1cccc(C)c1N1C(=O)[C@@H]2C(c3ccccc3Cl)=NO[C@@H]2C1=O | inactive: 8.1% |
| CC(=O)NCCNc1nc2cc(-c3ccc(C(=O)N4CCN(C)CC4)cc3)sc2c(=O)n1C | inactive: -1.1% |
| CC(=O)c1ccc(NC(=S)NC(=O)/C=C/c2ccccc2)cc1 | inconclusive: -35.6% |
| O=C(CN1C(=O)S/C(=C\C=C\c2ccccc2)C1=O)N1CCOCC1 | inconclusive: -9.6% |
| CCCCCOC(=O)C1=C(C)NC(=O)NC1c1ccc2c(c1)OCO2 (stereo unspecified) | inconclusive: -20% |
| Cc1cc(/C=C(\C#N)C(=O)O)c(C)n1CCC(C)C | inactive: -1.5% |
| Cc1ccc(OCC(=O)NNC(=O)C2CC(=O)N(c3ccc4c(c3)OCCO4)C2)cc1 (stereo unspecified) | inactive: 0.7% |
| O=[N+]([O-])c1cccc(-c2noc(-c3ccco3)n2)c1 | inconclusive: -36% |
| Cc1ccc(OCCn2c(C)c(/C=N/n3cnnc3)c3ccccc32)cc1 | inconclusive: 18.5% |
| CCOC(=O)/C(C#N)=C/C1=C(N2CCOCC2)C(C)(C)OCC1 | inconclusive: 41.5% |
| COc1cc(NC(C)C(=O)N2CC(C)OC(C)C2)cc(OC)c1 (stereo unspecified) | inconclusive: -4.8% |
| COc1ccc(C(=O)NNC2CC(=O)N(Cc3ccc(Cl)cc3)C2=O)cc1OC (stereo unspecified) | inactive: -1.1% |
| CCCCN1C(=O)/C(=C/C=C2\SCCN2C)SC1=S | inactive: -11.9% |
| CC(=O)Nc1cc2nc(C)n(Cc3ccccc3[N+](=O)[O-])c2nc1C | inconclusive: -20.1% |
| CCOc1ccc(Br)cc1S(=O)(=O)NCC(c1ccc(OC)cc1)N1CCOCC1 (stereo unspecified) | inactive: -2.3% |
| O=S(=O)(c1ccc(N2CC=C(c3ccccc3)CC2)nc1)N1CCCC1 | inactive: -6.4% |
| CC(C)(C)S(=O)N1Cc2cc(C(=O)Nc3ccc(-c4ccccc4)cc3)nc(-c3cccc(-c4cc5ccccc5o4)c3)c2[C@@H]1CCO (stereo partly specified) | inactive: -16.1% |
| O=C(COC(=O)CNC(=O)c1cccc([N+](=O)[O-])c1)Nc1ccccc1OC(F)F | inactive: -0.8% |
